The source of these data is PubChem BioAssay AID651900 (Broad Institute, 2012).

The list shows a part of the results. Shown are side measurements of this screen, not its main read-out; they come without a call.

The nature of this assay: cytotoxicity in NIH3T3 fibroblasts, dose response, cytotoxicity control, cell-based, plate reader, cherry-pick, two tests (AID 651900). As to conditions: test 2 concentration series, at 26 µM.
On to `Cc1cccc(C(=O)NC2CCN(CC(=O)Nc3ccccc3Cl)CC2)c1`, for which the activity is -13.3%.

On to `O=C(Nc1cccc(F)c1)C1CCCN(c2cnccn2)C1` (stereo unspecified), for which the activity was 8.11%.

As for `Cc1ccc(-c2nn(CCC(=O)Nc3cccnc3)c(=O)c3ccccc23)cc1`, the activity was -5.79%.

As for `Cn1ncc2cc3c(Nc4ccc(Cl)cc4)cccc3nc21`, the activity was -2.89%.

Consider `O=C(Nc1ccc(F)c(Cl)c1)C1CCCN(c2cnccn2)C1` (stereo unspecified), for which the activity was -8.84%.

Consider `CC(=O)OCC(=O)[C@@]1(OC(C)=O)[C@@H](C)C[C@H]2[C@@H]3C[C@H](F)C4=CC(=O)C=C[C@]4(C)[C@@]3(F)[C@@H](O)C[C@@]21C`, for which the activity turned out to be 6.27%.

In the case of `CCc1nn(CC(=O)N2CCN(Cc3ccc4c(c3)OCO4)CC2)c(=O)c2cc3occc3n12`, the activity is -7.6%.

With `CC(CNC(=O)CCCn1ncn2c(cc3occc32)c1=O)c1ccccc1` (stereo unspecified), the activity is -5.23%.

For `O=C(Nc1cccnc1)c1cc2nc(C3CC3)cc(C(F)(F)F)n2n1`, the activity is -0.235%.

With `CC(=O)c1ccc(C(=O)NC2CCCN(Cc3ccccc3F)C2)s1` (stereo unspecified), the activity came out at 4.56%.

For the molecule `CN(C(=O)CSc1nc2ccccc2c(=O)n1-c1ccccc1Cl)C1CCS(=O)(=O)C1` (stereo unspecified), the activity was found to be 0.744%.

For `O=C(O)CN1C(=O)/C(=C\c2cc(Br)ccc2OCc2ccc([N+](=O)[O-])cc2)SC1=S`, the activity came to 8.45%.

Turning to `CCOC(=O)c1c(C)[n+](-c2ccc(C)cc2)c(CC)c2cc(OC)c(OC)cc12`, the activity is -2.52%.

As for `COc1ccc(CCNC(=O)c2cnc3n(c2=O)CCS3)cc1OC`, the activity came out at 3.43%.

On to `Cc1cccc(-c2ccc3c(c2)C2CC3CCN2)c1` (stereo unspecified), for which the activity is -8.38%.

In the case of `Cc1cccc(C2c3[nH]c4ccccc4c3CCN2C(=O)CN2CCOC2=O)n1` (stereo unspecified), the activity was 2.96%.
